According to article PMC3878827, “Synthesis and biological characterisation of ^18F-SIG343 and ^18F-SIG353, novel and high selectivity σ2 radiotracers, for tumour imaging properties” (EJNMMI Research, 2013):

Assay: Metabolite studies (radio-TLC and radio-HPLC) in A375 tumour-bearing mice
Type: in vivo
Procedure: The amount of intact ^18F-SIG343 and ^18F-SIG353 in the plasma, urine, tumour and brain cortex was quantified by thin layer chromatography (TLC) and radio-HPLC analysis. Mice were injected with 20 MBq of the radiotracer in 100 μL of saline. Mice were sacrificed 15, 60 and 120 min post injection of radiotracer. Whole organ samples of brain cortex and tumour samples (10 to 60 mg, minced) were added to unlabelled SIG343 or SIG353 (5 μL; 1 mg/mL), KF (5 μL; 1 mg/mL), MeCN (0.3 mL) and water (0.2 mL). Samples were exposed to an ultrasonic probe (Ultrasonic processor, Misonix Inc., Farmingdale, NY, USA) for 2 min before being centrifuged (5,000 rpm, 5 min). Plasma (50 μL) or urine (10 μL) samples were added to unlabelled SIG343 or SIG353, KF and 0.5 mL MeCN. Plasma samples were centrifuged (Heraeus Biofuge PrimoR, Thermo Fisher Scientific, Hudson, NH, USA; 5,000 rpm, 5 min), and the supernatant was removed and the radioactivity of the precipitated pellets was measured using a gamma counter to determine the extraction efficiency. If necessary, multiple extractions were performed to ensure maximum recovery of the radioactivity. An appropriate amount of the supernatant, based on the activity level (cpm), was collected (approximately 100 μL), diluted with water (up to 1.5 mL) for HPLC analysis or evaporated to dryness under vacuum for TLC analysis.
The TLC sample was reconstituted in methanol (25 to 50 μL) and mixed before being applied to the concentrating zone of the silica TLC plate. In a separate lane, the corresponding ^18F-labelled and ^19F-standard was also spotted. The TLC solvent systems of EtOAc/MeOH (70:30) were utilised for ^18F-SIG343 (rf 0.50) and ^18F-SIG353 (rf 0.55). The UV of the standard was identified using a UV lamp, while the movement and integration of the radioactive spots were visualised and measured using a phosphorimager (BAS 2500 Phosphorimager, Fujifilm, Tokyo, Japan) with Fujifilm Multigage 3.0 software. The intact radiotracer was identified as the radioactive spot containing the identical rf value to the corresponding ^19F-standard seen under the UV lamp. The integration of the active spot in relation to all the activity in the TLC lane gave the percentage of intact radiotracer.
Radio-HPLC analysis was performed following the method of Hilton et al.. A pre-column (Waters Oasis HLB, 25 μm, 20 × 3.9 mm) and a reversed phase HPLC column (Phenomenex Bondclone C18, 10 μm, 250 × 4.6 mm or Phenomenex Synergi Max-RP 80A C18, 4 μm, 250 × 4.6 mm) in series, with a switching valve between columns was utilised. The pre-column was washed with 1% acetonitrile in water for 3 min at 1.5 mL/min and then the solvent direction was switched to include the HPLC column. Both columns in series were then eluted over 10 min. The radioactivity peak corresponding to the authentic radiotracer was compared to the total activity registered in the radiochromatogram to give the fraction of unchanged radiotracer in the sample.

| Compound | Sample recovery (recovery of the radioactivity), Cortex (15 min post injection) [%] | Sample recovery (recovery of the radioactivity), Plasma (15 min post injection) [%] | Sample recovery (recovery of the radioactivity), Tumour (15 min post injection) [%] | Sample recovery (recovery of the radioactivity), Cortex (60 min post injection) [%] | Sample recovery (recovery of the radioactivity), Plasma (60 min post injection) [%] | Sample recovery (recovery of the radioactivity), Tumour (60 min post injection) [%] | Sample recovery (recovery of the radioactivity), Cortex (120 min post injection) [%] | Sample recovery (recovery of the radioactivity), Plasma (120 min post injection) [%] | Sample recovery (recovery of the radioactivity), Tumour (120 min post injection) [%] |
| --- | --- | --- | --- | --- | --- | --- | --- | --- | --- |
| COc1cc2c(cc1OC)CN(CCCCN1C(=O)c3ccc([18F])cc3C1=O)CC2 [^18F-SIG343] | 92 | 89 ± 14.4 | 86 | 88 | 86 ± 16.4 | 90 | 90 | 91 ± 9.0 | 86 |
| COc1cc2c(cc1OC)CN(CCCCCN1C(=O)c3ccc([18F])cc3C1=O)CC2 [^18F-SIG353] | 91 | 92 ± 6.8 | 86 | 93 | 88 ± 10.7 | 90 | – | 94 ± 5.3 | 81 |
